Test results published in patent US7018802B2, “Electrochemiluminescent enzyme immunoassay” (BioVeris Corporation, priority 1995, dated 2006).

Assays:
[1] = ECL assay before and after NaOH (base) hydrolysis; assay type: physicochemical; details: 50 mM NaOH
[2] = ECL lower limit of detection of β-lactam hydrolysis; details: for average instrument reading, unhydrolyzed substance / instrument reading, hydrolyzed substance: at the lower limit of detection, 50 nM
[3] = ECL change on Ru-APA hydrolysis compared to 6-APA standard curve
[4] = 23.0 μM, 6-APA in equimolar mixture with Ru(bpy)3^+2 (nonconjugated), FIG. 11
[5] = 30 minute, 30 μM, ampicillin in equimolar mixture with Ru(bpy)3^+2 (nonconjugated), FIG. 8
[6] = FIG. 10 / FIG. 12, ampicillin unconjugated

Row | Compound | ECL increase upon base hydrolysis [1, 4] [fold] | ECL increase upon base hydrolysis [1, 5] [fold] | lower limit of detection of hydrolysis by ECL [2, 6] [nM] | lower limit of detection of hydrolysis by ECL ([2]; unconjugated, in the presence of 10 μM Ru(bpy)3^+2) [nM] | increase in the ECL change during hydrolysis through conjugation, versus nonconjugated 6-APA ([3]; 10 μM Ru-APA versus 6-APA plus 10 μM Ru(bpy)3^+2) [fold] | concentration of free 6-APA (nonconjugated) whose hydrolysis gives the equivalent ECL change ([3]; 10 μM Ru-APA, 6-APA in the presence of 10 μM Ru(bpy)3^+2, extrapolation of standard curve, FIG. 13) [µM] | average instrument reading, unhydrolyzed substance [2] [relative ECL counts] | instrument reading, hydrolyzed substance [2] [relative ECL counts]
1 | CC1(C)S[C@@H]2[C@H](N)C(=O)N2[C@H]1C(=O)O [6-APA, 6-aminopenicillanic acid, reference compound] | 1.9 | – | – | – | – | – | – | –
2 | CC1(C)S[C@@H]2[C@H](NC(=O)[C@H](N)c3ccccc3)C(=O)N2[C@H]1C(=O)O [ampicillin, reference compound] | – | 1.5 | 5000 | 50000 | – | – | – | –
3 | Ru(bpy)3^+2-labeled 6-aminopenicillanic acid [Ru-APA] | 13.2 | – | 50 | – | 125 | 1250 | −648 | −33
4 | Ru(bpy)3^+2-labeled ampicillin [Ru-AMP] | – | 5.2 | 50 | – | – | – | −152 | 464
